US20210221848A1 (priority 2014, published 2021)

Experiment: general procedure: solution-phase peptide synthesis; HATU/DIPEA
Details: late stage modification step

| Substance | step yield |
| --- | --- |
| (S)-4-(Boc)amino-2-hydroxybutanoyl Thr(O-^tBu) Tetra-(N-Boc) polymyxin B nonapeptide [Thr-10(O-triethylsilyl)] | 71% |
| Tri-(BOC)-Polymyxin E Heptapeptide | 56% |
